Values of other authors as cited in patent US10739353B2, “Suppression of cytokine release and cytokine storm” (SignPath Pharma Inc., priority 2014, dated 2020).

Details: mice, cited from earlier work

CC(C)c1c(C(=O)Nc2ccccc2)c(-c2ccccc2)c(-c2ccc(F)cc2)n1CC[C@@H](O)C[C@@H](O)CC(=O)O [Atorvastatin]
brain damage / neurological outcome after TBI: Hippocampal degeneration and functional neurological deficits were reduced | brain cytokine levels after TBI (cytokines named in value): lower both IL-6 and TNF-α
